Test results published in patent US7807783 (REGENTS OF THE UNIVERSITY OF MICHIGAN, dated 2010).

Amino acid sequences for entries named in this document (tags omitted). A change or cut given only in a name is not applied to a line headed by its entry.
UniProt P25445: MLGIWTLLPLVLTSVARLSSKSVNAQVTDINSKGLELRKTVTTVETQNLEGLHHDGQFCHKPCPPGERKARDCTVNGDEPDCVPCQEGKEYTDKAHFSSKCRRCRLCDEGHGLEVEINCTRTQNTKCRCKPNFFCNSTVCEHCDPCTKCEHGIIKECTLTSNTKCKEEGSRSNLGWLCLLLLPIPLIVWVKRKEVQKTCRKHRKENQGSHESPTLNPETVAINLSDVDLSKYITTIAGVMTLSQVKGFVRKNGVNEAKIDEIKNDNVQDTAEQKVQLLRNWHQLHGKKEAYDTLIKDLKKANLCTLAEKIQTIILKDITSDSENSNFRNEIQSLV

Legend:
[1] = biological target: FLAG-epitope tagged Fas (FLAG-Fas) (UniProt P25445); test: co-immunoprecipitation from cotransfected 293T cells
[2] = biological target: FLAG-epitope tagged Fas (FLAG-Fas) (UniProt P25445); test: co-immunoprecipitation with anti-HA from cotransfected 293T cells
[3] = biological target: FLAG-epitope tagged Fas (FLAG-Fas) (UniProt P25445); test: double immunoprecipitation, anti-HA then anti-FLAG, from cotransfected 293T cells

Measured: binding

B1: HA-epitope tagged FADD (HA-FADD) (other)
chain: YPYDVPDYAMDPFLVLLHSVSSSLSSSELTELKFLCLGRVGKRKLERVQSGLDLFSMLLEQNDLEPGHTELLRELLASLRRHDLLRRVDDFEAGAAAGAAPGEEDLCAAFNVICDNVGKDWRRLARQLKVSDTKIDSIEDRYPRNLTERVRESLRIWKNTEKENATVAHLVGALRSCQMNLVADLVQEVQQARDLQNRSGAMSPMSWNSDASTSEAS
modifications: 35S-methionine/cysteine metabolic or in vitro translation label
notes: also called in vitro translated FADD; 35S-labeled FADD
binds: [1] | [2] | [3]

No constants are given. Whether binding was seen depends on the method and setting. Binding can be weak; no strength is given. For part of these data: In cells and extracts the contact can be indirect.
